Patent EP4825843A1, “IMIDAZOLE LIPID AND USE THEREOF” (dated 2026)
The structures given here were assigned with low confidence; some may be wrong.

Assays:
[1] = Liposome encapsulation efficiency, Quant-iT RiboGreen RNA assay kit; settings: lipid nanoparticle composition encapsulating luciferase mRNA
Description: (§1) Compounds 1, 2, and 3 and comparative compounds 1, 2, and 3 were each dissolved in an ethanol solution, and each of the resulting solutions was mixed with solutions of DSPC, cholesterol, and DMG-PEG in ethanol in a molar percent (mol %) ratio of 50:10:38.5:1.5 to prepare an ethanol lipid solution. mRNA (luciferase, GenBank: MN728548.1) was dissolved in a 50 mM acetic acid buffer (pH 5) to prepare an aqueous mRNA solution (0.2 mg/mL). Each of the ethanol lipid solutions was mixed with the aqueous mRNA solution by microfluidics, with the volume ratio of the ethanol phase to the aqueous phase being 1:3 and the weight ratio of total lipids to mRNA being about 20:1, to prepare liposomes. Ethanol was removed by dialysis against a 20 mM Tris solution (pH 7.5). Finally, each solution was exchanged into a 20 mM Tris, 8% sucrose solution, and the resulting solutions were cryopreserved to obtain lipid nanoparticle compositions in which mRNA was encapsulated.
The liposome encapsulation efficiency was determined using a Quant-iT RiboGreen RNA assay kit.

[2] = test system: Jurkat cells (human T cells); test: Immune cell in vitro transfection efficiency (luciferase mRNA LNP, fluorescence intensity)
Description: (§2) Non-immune cells such as A549 cells (human non-small cell lung cancer cells) and immune cells such as Jurkat cells (human T cells) (from ATCC) were cultured in 96-well plates, respectively. The lipid nanoparticle compositions in which the luciferase mRNA (luciferase, GenBank: MN728548.1) was encapsulated were added to the cell well plates. After 24 h of incubation, the luciferase substrate (D-luciferin potassium salt, Cat. No. abs42075819) was added, and the fluorescence intensity was measured using a microplate reader. The fluorescence intensity indicates the level of luciferase protein expression, i.e., the delivery efficiency of the lipid nanoparticles corresponding to the compounds on different cells.

Spleen = test: Expression level of luciferase mRNA delivered by tail vein injection in tissues, IVIS imaging; settings: luciferase mRNA LNP, tail vein injection 0.5 mg/kg, 6 h after administration; comparative compound 1 taken as a unit 1
Description: (§3) Lipid nanoparticle compositions in which a luciferase-expressing mRNA (luciferase, GenBank: MN728548.1) was encapsulated (prepared according to the preparation method in Example 5) were administered to female Balb/c mice aged 6-8 weeks by tail vein injection at a dose of 0.5 mg/kg. Six hours after administration, the luciferase substrate (D-luciferin potassium salt, Cat. No. abs42075819) was injected intraperitoneally into each mouse. The mice were dissected, their livers and spleens were collected and photographed using an IVIS small-animal optical in vivo imaging system (PerkinElmer), and the fluorescence intensity of each tissue was measured. For the lipid nanoparticle composition corresponding to each compound, at least 3 biological replicates were set, and the mean fluorescence intensity was calculated. The fluorescence intensity indicates the level of luciferase protein expression. The relative fluorescence intensities, i.e., relative protein expression levels, of compounds 1, 2, and 3 and comparative compounds 1 and 3 were calculated with the fluorescence intensity of the lipid nanoparticle composition corresponding to comparative compound 1 taken as a unit 1. For example, the ratio of the tissue fluorescence intensity of compound 1 to the tissue fluorescence intensity of comparative compound 1 is the relative protein expression level of compound 1. […]

Liver = test: as above; settings: luciferase mRNA LNP, tail vein injection 0.5 mg/kg, 6 h after administration; comparative compound 1 taken as a unit 1
Description: as §3

[3] = test system: A549 cells (human non-small cell lung cancer cells); test: Non-immune cell in vitro transfection efficiency (luciferase mRNA LNP, fluorescence intensity)
Description: as §2

[4] = Size and polydispersity index of lipid nanoparticles by dynamic light scattering (Malvern Zetasizer Pro); settings: lipid nanoparticle composition (lipid:DSPC:cholesterol:DMG-PEG 50:10:38.5:1.5) encapsulating luciferase mRNA
Description: as §1
The size and polydispersity index (PDI) of the lipid nanoparticles were determined using a Malvern Zetasizer Pro in a 173° backscatter detection mode and dynamic light scattering.

Encapsulation efficiency (%) [1]: 98.8%
PDI [4]: 0.17
Size (nm) [4]: 84.2 nm
SMILES: CCCCCCCCC(CCCCCCCC)OC(=O)CCCCCCCN(CCCCCOCC(=O)OC(CCCCCCCC)CCCCCCCC)CCCn1ccnc1
Fluorescence intensity relative to that of the lipid nanoparticle composition corresponding to comparative compound 2 ([2]; immune cells): 6 times
Mean fluorescence intensity (p/s) ([2]; immune cells (Jurkat), LNP composition with luciferase mRNA, 24 h of incubation): 1.79E+04 p/s
Relative fluorescence intensity ([2]; immune cells (Jurkat), comparative compound 2 taken as a unit 1): 6.43
Relative protein expression level Spleen (Spleen): 1.4
Relative protein expression level Liver (Liver): 0.6
Mean fluorescence intensity (p/s) ([3]; LNP composition with luciferase mRNA, 24 h of incubation): 9.92E+03 p/s
Relative fluorescence intensity ([3]; comparative compound 2 taken as a unit 1): 0.48
